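Each compound is printed as two spots on a slide made to bind it covalently, so it has no test concentration; the read-out is fluorescence of the bound, labelled oligonucleotide. For the PreQ1, TPP and SAM-II riboswitches the laboratory earlier reported (doi:10.1038/s41467-019-09493-3) 1 µM RNA, 2 h, and a rule that included a mean Z-score above 3 (spot signal-to-noise against the whole library), a score well above that on a control array, and duplicate spots agreeing (coefficient of variation under 100). The data file gives only the calls; its cut-offs may differ, and compounds hitting several targets are kept. A missing hit is not proof of no binding, and a hit is not a measured affinity.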
“hit” means called a hit, “no hit” means screened and not called a hit.
Compounds were drawn at random from those tested, without regard to their results.
A dash means that no call is listed here.

Oligonucleotides screened, 5′ to 3′:
TPP: TPP riboswitch RNA three-way junction, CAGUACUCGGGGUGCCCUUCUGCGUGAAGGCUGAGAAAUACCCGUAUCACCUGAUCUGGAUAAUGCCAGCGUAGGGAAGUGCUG. About 24,000 compounds screened, about 160 hits.
PreQ1: PreQ1 riboswitch RNA pseudoknot, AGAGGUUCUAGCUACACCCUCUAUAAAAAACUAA. From B. subtilis. About 24,000 compounds screened, about 170 hits.
SAM-II: SAM-II riboswitch RNA pseudoknot, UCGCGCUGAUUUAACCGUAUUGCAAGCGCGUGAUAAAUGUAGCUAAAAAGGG. About 21,000 compounds screened, about 200 hits.

SMILES	TPP	PreQ1	SAM-II
OCCn1cnc(Cl)c1Cl	no hit	no hit	no hit
CCn1cc(C(=O)N2C[C@H](c3cccc(OC)c3)[C@@H](N)C2)cn1	no hit	no hit	no hit
Cc1ccccc1N1CCCN([C@H]2CN(Cc3c[nH]cn3)C[C@@H]2O)CC1	no hit	no hit	no hit
Nc1cc2c(cc1Cl)C(=O)c1ccccc1C2=O	no hit	no hit	no hit
CCCN(Cc1cccnc1)Cc1ccc(OCC)c(CO)c1	no hit	no hit	no hit
CCCc1n[nH]c2c1C(c1ccc(Cl)cc1Cl)C(C#N)=C(N)O2 (configuration not stated)	no hit	no hit	no hit
N[C@H]1CC[C@@H](n2cc(C(=O)N3CC=C(c4ccccc4)CC3)nn2)CC1	no hit	no hit	no hit
COCc1cc(C)nc(NCCO)c1C#N	no hit	no hit	no hit
Cc1scc(C(=O)N2CCCC(O)(CO)C2)c1-c1ccccc1 (configuration not stated)	no hit	no hit	no hit
Cc1n[nH]nc1C(=O)N1CCN(C2CCOCC2)CC(O)C1 (configuration not stated)	no hit	no hit	no hit
COc1ccc(C(=O)n2ncc(C(=O)Nc3ccccc3)c2N)cc1	no hit	no hit	no hit
N#CC1=C(N)Oc2nc(SCc3ccccc3)[nH]c(=O)c2C1c1ccccc1 (configuration not stated)	no hit	no hit	no hit
CCCCCCCCc1ccc(CCC(N)(CO)CO)cc1	no hit	no hit	no hit
CC(CC(F)(F)F)NCCN(C)S(C)(=O)=O (configuration not stated)	no hit	no hit	no hit
Nc1c(C(=O)NCc2ccco2)nnn1Cc1ccccc1	no hit	no hit	no hit
O=C(NCCN1CCCCC1CO)c1csc(Cc2ccccc2)n1 (configuration not stated)	no hit	no hit	no hit
O=c1[nH]cnc2c1CCN(Cc1cc3n(n1)CCCNC3)CC2	no hit	no hit	no hit
CCc1cc(C(=O)N2C[C@@H](CN3C[C@@H](C)O[C@@H](C)C3)[C@@H](CO)C2)ccn1	no hit	no hit	no hit
O=c1[nH]nc(Sc2ncc([N+](=O)[O-])s2)n1-c1ccc2c(c1)OCCO2	no hit	no hit	no hit
CCOC(=O)c1cccc(Nc2cc(C)nc(C)n2)c1	no hit	no hit	-
CNC(=O)[C@@H]1C[C@H](N)CN1C(=O)CCn1cnc2ccccc21	no hit	no hit	no hit
Cc1ccc(-n2nc(CO)c(C(=O)NCc3ccncc3)n2)cc1C	no hit	no hit	-
COC(=O)c1cc2n(n1)CCCN(C(=O)[C@H]1Cc3ccccc3CN1)C2	no hit	no hit	no hit
NCCn1cc(C(=O)N2CCC(Oc3ccncc3)CC2)nn1	no hit	no hit	no hit
CCCCOC(=O)c1c(N)n(CCO)c2nc3ccccc3nc12	no hit	no hit	no hit
Cc1ccc(NCc2nc3ccccc3n2Cc2ccccc2)cc1	no hit	no hit	no hit
CCCC(O)c1nc2ccccc2n1Cc1ccc(Br)cc1 (configuration not stated)	no hit	no hit	-
O[C@@H]1C[C@H]2CN(CC(c3ccccc3)c3ccccc3)C[C@H]2C[C@@H]1O	no hit	no hit	no hit
COc1ccc(C)c(NC(=O)N2C[C@@H](CO)[C@H](CO)C2)c1	no hit	no hit	no hit
CCn1nc(C(=O)O)c2c1CCC(NCc1cc(C)oc1C(F)(F)F)C2 (configuration not stated)	no hit	no hit	no hit
Cc1ccc(-c2noc(-c3nnn(-c4ccc(F)cc4F)c3N)n2)cc1	no hit	no hit	-

Once more, the final 4:

SMILES,TPP,PreQ1,SAM-II
O[C@@H]1C[C@H]2CN(CC(c3ccccc3)c3ccccc3)C[C@H]2C[C@@H]1O,no hit,no hit,no hit
COc1ccc(C)c(NC(=O)N2C[C@@H](CO)[C@H](CO)C2)c1,no hit,no hit,no hit
CCn1nc(C(=O)O)c2c1CCC(NCc1cc(C)oc1C(F)(F)F)C2 (configuration not stated),no hit,no hit,no hit
Cc1ccc(-c2noc(-c3nnn(-c4ccc(F)cc4F)c3N)n2)cc1,no hit,no hit,-

From ROBIN, a set of small-molecule microarray screens (doi:10.1002/anie.202211358).